Assay results: PubChem BioAssay AID328 (DTP/NCI, 2004)
The list is a part of this screen's results and no random one: it covers a few groups of compounds. Not every dose and run of a compound is shown. T/C is the treated group as % of the vehicle group. Where survival is the endpoint, this PubChem deposit counts one and a half times the control or more as active, and values a quarter to a half above the control carry no call in these data; other NCI protocols may use other cut-offs. Some T/C values are marked as having no survivor count here; that says nothing about deaths at the dose. Schedule codes are those of the source, read here as Q, the interval in days (D) or hours (H), X, the number of doses. Some entries hold several experiments; the values are given in rising order.

Test system: BDF1 mice, P388 leukemia ip, median survival T/C
Assay: NCI In Vivo Anticancer Drug Screen. Data for tumor model P388 Leukemia (intraperitoneal) in B6D2F1 (BDF1) mice
Conditions: T/C endpoint: median survival time, higher T/C = longer survival
Procedure, shortened: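 Vehicle-dosed animals serve as the reference; survival of compound-dosed, tumour-implanted mice is divided by it.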

[1] = dose: 65.0 mg/kg/injection, schedule: Q04DX003 (ip), vehicle: Klucel (hydroxypropylcellulose) (HPC)
[2] = dose: 132.0 mg/kg/injection, schedule: Q04DX003 (ip), vehicle: Klucel (hydroxypropylcellulose) (HPC)
[3] = dose: 50.0 mg/kg/injection, schedule: Q01DX009 (ip), vehicle: saline with Tween-80

O=C(O)COc1cccc(N(CCCl)CCCl)c1
T/C (dose: 1.1 mg/kg/injection, schedule: Q01DX009 (ip), vehicle: Klucel (hydroxypropylcellulose) (HPC)): 90 % of control [survivor count not shown]
T/C (dose: 1.7 mg/kg/injection, schedule: Q01DX009 (ip), vehicle: Klucel (hydroxypropylcellulose) (HPC)): 103 % of control [survivor count not shown]
T/C (dose: 2.6 mg/kg/injection, schedule: Q01DX009 (ip), vehicle: Klucel (hydroxypropylcellulose) (HPC)): 111 % of control [survivor count not shown]
T/C (dose: 14.0 mg/kg/injection, schedule: Q01DX009 (ip), vehicle: Klucel (hydroxypropylcellulose) (HPC)): 141 % of control [survivor count not shown]
T/C (dose: 19.0 mg/kg/injection, schedule: Q04DX003 (ip), vehicle: Klucel (hydroxypropylcellulose) (HPC)): 120 % of control [survivor count not shown]
T/C (dose: 21.0 mg/kg/injection, schedule: Q01DX009 (ip), vehicle: Klucel (hydroxypropylcellulose) (HPC)): 145 % of control [survivor count not shown]
T/C (dose: 29.0 mg/kg/injection, schedule: Q04DX003 (ip), vehicle: Klucel (hydroxypropylcellulose) (HPC)): 135 % of control [survivor count not shown]
T/C (dose: 33.0 mg/kg/injection, schedule: Q01DX009 (ip), vehicle: Klucel (hydroxypropylcellulose) (HPC)): 181 % of control [survivor count not shown]
T/C (dose: 45.0 mg/kg/injection, schedule: Q04DX003 (ip), vehicle: Klucel (hydroxypropylcellulose) (HPC)): 142 % of control [survivor count not shown]
T/C [1]: 157 % of control [survivor count not shown]
T/C (dose: 66.0 mg/kg/injection, schedule: Q01DX009 (ip), vehicle: Klucel (hydroxypropylcellulose) (HPC)): 213 % of control [survivor count not shown]
T/C (dose: 132.0 mg/kg/injection, schedule: Q01DX009 (ip), vehicle: Klucel (hydroxypropylcellulose) (HPC)): 127 % of control [survivor count not shown]
T/C [2]: 95 [survivor count not shown], 209 [survivor count not shown], 271 % of control [survivor count not shown]
T/C (dose: 300.0 mg/kg/injection, schedule: Q04DX003 (ip), vehicle: Klucel (hydroxypropylcellulose) (HPC)): 86 % of control [survivor count not shown]

S=P(Cl)(Cl)N(CCCl)CCCl
T/C (dose: 6.25 mg/kg/injection, schedule: Q01DX009 (ip), vehicle: saline with Tween-80): 104 % of control [survivor count not shown]
T/C (dose: 12.5 mg/kg/injection, schedule: Q01DX009 (ip), vehicle: saline with Tween-80): 112 % of control [survivor count not shown]
T/C (dose: 25.0 mg/kg/injection, schedule: Q01DX009 (ip), vehicle: saline with Tween-80): 104 % of control [survivor count not shown]
T/C [3]: 108 % of control [survivor count not shown]
T/C (dose: 100.0 mg/kg/injection, schedule: Q04DX003 (ip), vehicle: other): 100 % of control [survivor count not shown]

O[C@@H](CNCCCl)[C@@H](O)CNCCCl
T/C (dose: 26.4 mg/kg/injection, schedule: Q04DX003 (ip), vehicle: saline with Tween-80): 272 % of control [survivor count not shown]
T/C (dose: 40.0 mg/kg/injection, schedule: Q04DX003 (ip), vehicle: saline with Tween-80): 272 % of control [survivor count not shown]
T/C (dose: 60.0 mg/kg/injection, schedule: Q04DX003 (ip), vehicle: saline with Tween-80): 272 % of control [survivor count not shown]

COc1c(C)cc(N(CCCl)CCCl)c2ccccc12
T/C (dose: 3.6 mg/kg/injection, schedule: Q04DX003 (ip), vehicle: Klucel (hydroxypropylcellulose) (HPC)): 100 % of control [survivor count not shown]
T/C (dose: 5.4 mg/kg/injection, schedule: Q04DX003 (ip), vehicle: Klucel (hydroxypropylcellulose) (HPC)): 154 % of control [survivor count not shown]
T/C (dose: 6.25 mg/kg/injection, schedule: Q01DX009 (ip), vehicle: Klucel (hydroxypropylcellulose) (HPC)): 190 % of control [survivor count not shown]
T/C (dose: 12.5 mg/kg/injection, schedule: Q01DX009 (ip), vehicle: Klucel (hydroxypropylcellulose) (HPC)): 195 % of control [survivor count not shown]
T/C (dose: 25.0 mg/kg/injection, schedule: Q01DX009 (ip), vehicle: Klucel (hydroxypropylcellulose) (HPC)): 142 % of control [survivor count not shown]
T/C (dose: 50.0 mg/kg/injection, schedule: Q01DX009 (ip), vehicle: Klucel (hydroxypropylcellulose) (HPC)): 110 % of control [survivor count not shown]
T/C [1]: 218 % of control [survivor count not shown]
T/C (dose: 100.0 mg/kg/injection, schedule: Q04DX003 (ip), vehicle: Klucel (hydroxypropylcellulose) (HPC)): 215 % of control [survivor count not shown]
T/C [2]: 95 [survivor count not shown] and 125 % of control [survivor count not shown]
T/C (dose: 200.0 mg/kg/injection, schedule: Q04DX003 (ip), vehicle: Klucel (hydroxypropylcellulose) (HPC)): 110 [survivor count not shown] and 300 % of control [survivor count not shown]

CCC(C)(O)C#CCN(CCCl)CCCl (centres undefined)
T/C (dose: 3.13 mg/kg/injection, schedule: Q01DX009 (ip), vehicle: saline): 122 % of control [survivor count not shown]

ClCCNCCCl.O=C(O)/C=C\C(=O)O
T/C (dose: 14.0 mg/kg/injection, schedule: Q01DX009 (ip), vehicle: saline): 122 % of control [survivor count not shown]
T/C (dose: 21.0 mg/kg/injection, schedule: Q01DX009 (ip), vehicle: saline): 109 % of control [survivor count not shown]
T/C (dose: 25.0 mg/kg/injection, schedule: Q01DX009 (ip), vehicle: saline): 120 % of control [survivor count not shown]
T/C (dose: 33.0 mg/kg/injection, schedule: Q01DX009 (ip), vehicle: saline with Tween-80): 131 % of control [survivor count not shown]
T/C [3]: 186 % of control [survivor count not shown]
T/C (dose: 50.0 mg/kg/injection, schedule: Q01DX009 (ip), vehicle: saline): 160 % of control [survivor count not shown]
T/C (dose: 66.0 mg/kg/injection, schedule: Q04DX003 (ip), vehicle: saline with Tween-80): 121 % of control [survivor count not shown]
T/C (dose: 75.0 mg/kg/injection, schedule: Q01DX009 (ip), vehicle: saline with Tween-80): 209 % of control [survivor count not shown]
T/C (dose: 100.0 mg/kg/injection, schedule: Q01DX009 (ip), vehicle: saline): 150 % of control [survivor count not shown]
T/C (dose: 100.0 mg/kg/injection, schedule: Q04DX003 (ip), vehicle: saline with Tween-80): 182 % of control [survivor count not shown]
T/C (dose: 150.0 mg/kg/injection, schedule: Q04DX003 (ip), vehicle: saline with Tween-80): 239 % of control [survivor count not shown]
